These are yes or no findings as the source states them, for the method shown. In cells and extracts the contact can be indirect. Some binding calls cover weakened binding; strength is not graded here.
B1: Peroxisome proliferator-activated receptor γ coactivator 1α (PGC-1α) (protein, UniProt O70343 1-797)
chain: MAWDMCSQDSVWSDIECAALVGEDQPLCPDLPELDLSELDVNDLDTDSFLGGLKWCSDQSEIISNQYNNEPANIFEKIDEENEANLLAVLTETLDSLPVDEDGLPSFDALTDGAVTTDNEASPSSMPDGTPPPQEAEEPSLLKKLLLAPANTQLSYNECSGLSTQNHAANHTHRIRTNPAIVKTENSWSNKAKSICQQQKPQRRPCSELLKYLTTNDDPPHTKPTENRNSSRDKCASKKKSHTQPQSQHAQAKPTTLSLPLTPESPNDPKGSPFENKTIERTLSVELSGTAGLTPPTTPPHKANQDNPFKASPKLKPSCKTVVPPPTKRARYSECSGTQGSHSTKKGPEQSELYAQLSKSSGLSRGHEERKTKRPSLRLFGDHDYCQSLNSKTDILINISQELQDSRQLDFKDASCDWQGHICSSTDSGQCYLRETLEASKQVSPCSTRKQLQDQEIRAELNKHFGHPCQAVFDDKSDKTSELRDGDFSNEQFSKLPVFINSGLAMDGLFDDSEDESDKLSYPWDGTQPYSLFDVSPSCSSFNSPCRDSVSPPKSLFSQRPQRMRSRSRSFSRHRSCSRSPYSRSRSRSPGSRSSSRSCYYYESSHYRHRTHRNSPLYVRSRSRSPYSRRPRYDSYEAYEHERLKRDEYRKEHEKRESERAKQRERQKQKAIEERRVIYVGKIRPDTTRTELRDRFEVFGEIEECTVNLRDDGDSYGFITYRYTCDAFAALENGYTLRRSNETDFELYFCGRKQFFKSNYADLDTNSDDFDPASTKSKYDSLDFDSLLKEAQRSLRR
B2: Mitochondrial Na+/Ca2+/Li+ exchanger (NCLX) (protein, UniProt Q925Q3 27-585)
chain: TGDPSTKAHGHIQFSAGSVNQTAMADCRAVCGLNTSDRCDFVRRNPDCRSEAGYLDYLEGIFCYFPPNLLPLAITLYVFWLLYLFLILGVTAAKFFCPNLSAISTNLKLSHNVAGVTFLAFGNGAPDIFSALVAFSDPRTAGLAIGALFGAGVLVTTVVAGGITILHPFMAASRPFLRDIAFYMVAVFLTFTALYLGRITLTWALGYLGLYVFYVVTVIICTWVYQRQRSRSLVHSISETPELLSESEEDQMSSNTNSYDYGDEYRPLLLGRETTVQILIQALNPLDYRKWRTQSISWRVLKVVKLPVEFLLLLTVPVVDPDKDDRNWKRPLNCLQLVISPLVLVLTLQSGVYGIYEIGGLLPVWAVVVIVGTALASVTFFATSNREPPRLHWLFAFLGFLTSALWINAAATEVVNILRSLGVIFRLSNTVLGLTLLAWGNSIGDAFSDFTLARQGYPRMAFSACFGGIIFNILVGVGLGCLLQIIRNHVVEVKLEPDGLLVWVLASALGLSLIFSLVSVPLQCFQLSKAYGLCLLLFYICFLVVVLLTEFGVIHLKKA

Amino acid sequences for entries named in this document (tags omitted). Residues count along the entry.
UniProt Q62407, residues 855-3262: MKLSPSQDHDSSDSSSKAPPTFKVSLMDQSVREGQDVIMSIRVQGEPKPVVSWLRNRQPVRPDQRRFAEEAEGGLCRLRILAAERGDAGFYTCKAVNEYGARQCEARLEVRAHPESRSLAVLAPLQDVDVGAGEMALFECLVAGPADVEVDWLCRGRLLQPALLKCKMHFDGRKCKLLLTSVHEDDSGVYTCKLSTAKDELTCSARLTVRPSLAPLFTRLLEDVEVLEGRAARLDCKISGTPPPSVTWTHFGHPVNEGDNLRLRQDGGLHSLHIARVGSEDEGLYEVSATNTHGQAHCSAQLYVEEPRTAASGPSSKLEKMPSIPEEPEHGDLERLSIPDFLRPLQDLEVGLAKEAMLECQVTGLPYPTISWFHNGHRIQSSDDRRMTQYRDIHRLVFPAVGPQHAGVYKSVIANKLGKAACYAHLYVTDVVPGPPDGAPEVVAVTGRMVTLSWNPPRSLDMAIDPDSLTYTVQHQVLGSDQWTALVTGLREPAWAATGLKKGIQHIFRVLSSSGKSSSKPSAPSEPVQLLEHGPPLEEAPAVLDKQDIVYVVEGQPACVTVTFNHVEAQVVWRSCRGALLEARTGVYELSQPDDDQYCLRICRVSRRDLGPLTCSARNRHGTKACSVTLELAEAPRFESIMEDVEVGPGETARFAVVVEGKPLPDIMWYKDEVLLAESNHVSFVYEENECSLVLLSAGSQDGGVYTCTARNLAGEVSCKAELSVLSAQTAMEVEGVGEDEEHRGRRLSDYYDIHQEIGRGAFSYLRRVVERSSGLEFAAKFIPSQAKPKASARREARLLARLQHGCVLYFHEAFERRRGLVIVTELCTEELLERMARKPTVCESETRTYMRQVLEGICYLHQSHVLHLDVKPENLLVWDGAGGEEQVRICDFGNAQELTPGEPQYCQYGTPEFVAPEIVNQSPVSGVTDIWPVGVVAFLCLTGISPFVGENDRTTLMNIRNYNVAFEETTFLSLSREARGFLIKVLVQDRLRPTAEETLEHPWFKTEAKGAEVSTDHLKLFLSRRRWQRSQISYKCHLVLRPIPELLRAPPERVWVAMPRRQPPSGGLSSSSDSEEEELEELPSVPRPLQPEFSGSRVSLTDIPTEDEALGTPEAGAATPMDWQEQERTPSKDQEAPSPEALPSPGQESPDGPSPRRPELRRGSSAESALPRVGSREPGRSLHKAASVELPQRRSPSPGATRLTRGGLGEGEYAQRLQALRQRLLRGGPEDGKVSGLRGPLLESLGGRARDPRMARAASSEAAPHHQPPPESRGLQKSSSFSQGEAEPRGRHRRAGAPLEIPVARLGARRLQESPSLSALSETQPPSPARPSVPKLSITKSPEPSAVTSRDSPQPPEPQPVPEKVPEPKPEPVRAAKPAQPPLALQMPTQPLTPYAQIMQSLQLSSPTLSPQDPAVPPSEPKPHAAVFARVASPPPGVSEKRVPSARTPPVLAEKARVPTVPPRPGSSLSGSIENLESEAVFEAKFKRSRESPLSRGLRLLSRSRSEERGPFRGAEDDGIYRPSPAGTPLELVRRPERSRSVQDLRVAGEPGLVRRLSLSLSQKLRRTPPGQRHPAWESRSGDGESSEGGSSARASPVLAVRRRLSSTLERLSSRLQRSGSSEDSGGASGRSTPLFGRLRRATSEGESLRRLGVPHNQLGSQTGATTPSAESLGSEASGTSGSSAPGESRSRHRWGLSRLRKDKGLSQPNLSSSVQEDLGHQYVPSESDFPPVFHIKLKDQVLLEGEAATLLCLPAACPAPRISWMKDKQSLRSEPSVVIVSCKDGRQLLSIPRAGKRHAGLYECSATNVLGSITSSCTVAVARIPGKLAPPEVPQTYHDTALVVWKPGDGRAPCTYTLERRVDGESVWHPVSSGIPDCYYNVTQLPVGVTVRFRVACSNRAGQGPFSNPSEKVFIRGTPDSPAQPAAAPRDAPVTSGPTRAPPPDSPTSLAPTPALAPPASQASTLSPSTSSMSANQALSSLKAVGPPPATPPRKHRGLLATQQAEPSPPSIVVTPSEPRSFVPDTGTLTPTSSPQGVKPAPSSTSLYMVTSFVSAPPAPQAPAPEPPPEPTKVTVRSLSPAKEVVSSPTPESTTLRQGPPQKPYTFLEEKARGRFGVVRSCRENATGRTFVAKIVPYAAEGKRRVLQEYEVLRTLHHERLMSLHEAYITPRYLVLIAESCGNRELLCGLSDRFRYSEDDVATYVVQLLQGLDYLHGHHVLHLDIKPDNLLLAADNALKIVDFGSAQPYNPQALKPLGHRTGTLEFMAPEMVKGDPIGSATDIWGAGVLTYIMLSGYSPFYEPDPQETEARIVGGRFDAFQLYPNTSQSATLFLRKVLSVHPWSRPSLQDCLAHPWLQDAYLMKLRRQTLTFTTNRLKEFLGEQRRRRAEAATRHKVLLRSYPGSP

Target: Striated preferentially expressed gene (Speg), Spegα isoform (mouse (endogenous in adult mouse heart)) (UniProt Q62407)
Test: co-IP; adult mouse heart homogenised in Pierce IP lysis buffer with protease and phosphatase inhibitors; 1500 μg protein pre-cleared, incubated with Speg or PGC-1α antibody overnight at 4 °C, magnetic Protein-A Dynabeads 2 h at 4 °C; Western blot; normal rabbit IgG as control

Row | Binder | binding
1 | B1 | binds
2 | B2 | no binding
